# According to PubChem BioAssay AID445 (National Center for Advancing Translational Sciences (NCATS), 2006):
# Several values for one entry are separate records, joined by “and”; a condition that tells them apart may be missing. Equal values may be shown once. The list shows a part of the results. The main result of the screen is listed elsewhere. These columns were measured beside it and carry no call. Most of these compounds were active or inconclusive in the main read-out, so they are no random draw. Words in brackets tell the shape of the fitted curve; partial curves, single points and poor fits give uncertain potencies.
# Test: IkB Signaling
# Conditions: ABC-DLBCL IkBa-CBG/CBR dual luciferase ratio (green luciferase fused to IkBa over red control in OCI-Ly3 lymphoma cells), 4 h
# Procedure, shortened: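 In this assay, an IκBα–CBG68 fusion accumulates when IKK-driven degradation is blocked; native CBR normalizes for cell number. OCI-Ly3 cells were treated 4 h with compound and doxycycline, then green and red light read after Chroma-Glo addition.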
# [1] = measured here: control luc red channel unless noted
compound,measurement,setting,value
O=C(Cn1nnc(-c2ccc(CN3CCOCC3)cc2)n1)Nc1nc(-c2ccccc2)cs1,AC50,[1],"39.8 µM [rising, single point] [measured here: IkB-luc green channel]"
CCOC(=O)C1CCC(CN(Cc2ccc(OC)cc2)S(=O)(=O)c2ccc(F)c(C(=O)Nc3c(C)cccc3C)c2)CC1 (stereo not given),AC50,[1],"39.8 µM [falling, single point]"
CC(C)c1ccc(NC(=O)N2CCC(c3nc4ccccc4o3)CC2)cc1,AC50,[1],"20 µM [falling, partial curve]"
COc1ccc(N2CC(NC(=O)C3CCCC3)CC2=O)cc1OC (stereo not given),AC50,[1],"3.16 µM [rising, full curve, poor fit] [measured here: IkB-luc green channel]"
COc1ccc(CCNC(=O)c2cn(C)c3ccc(S(=O)(=O)N(C)C)cc3c2=O)cc1OC,AC50,[1],"12.6 µM [rising, partial curve]"
CC(C)c1ccc(NC(=O)Cn2nnc(C(=O)NCc3ccc(Cl)cc3)c2N)cc1,AC50,[1],"0.0316 µM [falling, full curve, poor fit]"
CCNC(=O)c1c(NC(=O)c2nc(S(=O)(=O)CC)ncc2Cl)sc2c1CCCC2,AC50,[1],"3.98 µM [falling, full curve]"
COc1ccccc1NC(=O)c1sc2nc3c(cc2c1N)CN(Cc1ccccc1)CC3,AC50,[1],"31.6 µM [falling, single point]"
COc1ccccc1N(C(=O)c1snc(C(N)=O)c1N)C(C(=O)NC1CCCC1)c1ccco1 (stereo not given),AC50,[1],"12.6 µM [falling, partial curve]"
CSc1nc(N)nc(SCCS(=O)(=O)c2ccc(Cl)cc2)c1C#N,AC50,[1],"3.16 µM [falling, full curve]"
O=C(CSc1nc(=O)[nH]c2c1CCCC2)NCc1ccc(F)cc1,AC50,[1],"12.6 µM [rising, partial curve]"
CCc1nc(C)cn1S(=O)(=O)c1ccc(Cl)c(Cl)c1OC,AC50,[1],"0.631 µM [rising, partial curve]"
C[C@@]12C[C@@H](O)[C@H]3[C@@H](CCC4=CC(=O)CC[C@]43C)[C@H]1CC[C@H]2C(=O)CO,AC50,[1],"158 nM [rising, full curve] [measured here: IkB-luc green channel] and 63.1 nM [rising, full curve] [measured here: IkB-luc green channel]"
COC(=O)c1cc(C)nc2c1c(=O)nc(SCc1ccccc1Cl)n2C1CC1,AC50,measured here: IkB-luc green channel,"39.8 µM [falling, partial curve]"
same,AC50,measured here: control luc red channel,"39.8 µM [falling, single point]"
Cn1cnc(S(=O)(=O)N2CCC(C(=O)Nc3ccc(Cl)c(C(F)(F)F)c3)CC2)c1,AC50,[1],"20 µM [falling, single point]"
CCc1cccc(NS(=O)(=O)c2ccc3c(c2)N(CC(=O)OC)C(=O)CS3)c1,AC50,[1],"25.1 µM [falling, single point]"
C=CCn1c(NCc2cc(C)ccc2O)nc2ccccc21,AC50,[1],"25.1 µM [falling, single point]"
O=C(Cn1c(=O)n(Cc2ccc(C(=O)NCc3ccc4c(c3)OCO4)cc2)c(=O)c2ccccc21)Nc1ccccc1F,AC50,[1],"2.51 µM [falling, full curve, poor fit]"
Cc1cc(C)c2cc(C#N)c(SCC(=O)NCc3ccco3)nc2c1,AC50,[1],"31.6 µM [rising, partial curve] [measured here: IkB-luc green channel]"
COc1ccc(-n2ccn(CC(=O)Nc3ccc(C)cc3C)c(=O)c2=O)cc1,AC50,[1],"20 µM [falling, single point]"
CCCCOC(=O)C1C2C=C[C@]3(CN(CCCOC)C(=O)[C@H]13)O2 (stereo not given in full),AC50,[1],"0.794 µM [falling, full curve]"
CC(C)(C)c1ccc(C(=O)NC(Cc2c[nH]c3ccccc23)C(=O)OCC(=O)c2ccc(Br)cc2)cc1 (stereo not given),AC50,[1],"39.8 µM [falling, partial curve, poor fit]"
O=C(Nc1cccc2c1CCCC2)N1CCOc2ccc(Cl)cc21,AC50,[1],"12.6 µM [falling, partial curve]"
Fc1ccc(N2CCN(c3ncnc4[nH]ncc34)CC2)cc1,AC50,[1],"0.501 µM [rising, full curve, poor fit]"
Cc1cccc(C(C)C)c1NC(=O)c1ccc2c(c1)CCCN2S(C)(=O)=O,AC50,[1],"20 µM [falling, single point]"
CCOC(=O)c1cc(-c2ccc(C)cc2)n(CC(=O)Nc2ccc(OC)cc2OC)c1C,AC50,[1],"12.6 µM [rising, partial curve]"
Cc1ccc(S(=O)(=O)N(CC(=O)NCCSc2ccc(Cl)cc2)c2cccc(Cl)c2)cc1,AC50,[1],"31.6 µM [falling, partial curve]"
CCc1cc(=O)[nH]c(SCc2nc(-c3ccc(C(F)(F)F)cc3)no2)n1,AC50,[1],"6.31 µM [falling, partial curve, poor fit]"
COc1ccc(N2CCN(C(c3ccc(F)cc3)c3sc4nc(-c5ccco5)nn4c3O)CC2)cc1 (stereo not given),AC50,[1],"39.8 µM [falling, single point]"

# An excerpt of these results, tab-delimited:
compound	measurement	setting	value
CCOC(=O)c1cc(-c2ccc(C)cc2)n(CC(=O)Nc2ccc(OC)cc2OC)c1C	AC50	[1]	12.6 µM [rising, partial curve]
Cc1ccc(S(=O)(=O)N(CC(=O)NCCSc2ccc(Cl)cc2)c2cccc(Cl)c2)cc1	AC50	[1]	31.6 µM [falling, partial curve]
